Data taken from publication PMC3928049.
These are yes or no findings as the source states them, for the method shown. In cells and extracts the contact can be indirect. Binding can be weak; no strength is given. Tags and fused reporters may be left off the sequences shown.

Columns and labels:
Experiment in all cases: pull-down; 6 ug resin-bound MBP fusion protein added to 250 ug total protein extract of DEX-induced transgenic Arabidopsis seedlings, 1 h at 4 C with rotation; 50 mM Tris-HCl pH 7.4, 150 mM NaCl, 10% glycerol, 0.2% NP-40, MG132 and protease inhibitors; anti-HA immunoblot; only the target purified
MBP-JAZ10 (Arabidopsis) = target: T1, MBP-JAZ10 (Arabidopsis) (UniProt Q93ZM9)
T1 sequence: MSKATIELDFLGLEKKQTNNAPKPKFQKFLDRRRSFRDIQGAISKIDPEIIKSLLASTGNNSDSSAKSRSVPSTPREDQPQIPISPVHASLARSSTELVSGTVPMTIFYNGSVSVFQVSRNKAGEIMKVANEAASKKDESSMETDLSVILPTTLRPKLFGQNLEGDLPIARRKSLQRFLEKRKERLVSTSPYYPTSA

MBP-JAZ11 (Arabidopsis) = target: T2, MBP-JAZ11 (Arabidopsis) (UniProt Q9M246)
T2 sequence: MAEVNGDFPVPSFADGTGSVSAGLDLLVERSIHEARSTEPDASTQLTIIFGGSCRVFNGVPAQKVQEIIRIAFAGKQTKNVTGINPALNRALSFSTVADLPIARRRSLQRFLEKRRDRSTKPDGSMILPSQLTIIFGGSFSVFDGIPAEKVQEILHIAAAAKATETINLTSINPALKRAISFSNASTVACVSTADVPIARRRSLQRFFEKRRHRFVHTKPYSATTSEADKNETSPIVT

MBP-JAZ3 (Arabidopsis) = target: T3, MBP-JAZ3 (Arabidopsis) (UniProt Q9LVI4)
T3 sequence: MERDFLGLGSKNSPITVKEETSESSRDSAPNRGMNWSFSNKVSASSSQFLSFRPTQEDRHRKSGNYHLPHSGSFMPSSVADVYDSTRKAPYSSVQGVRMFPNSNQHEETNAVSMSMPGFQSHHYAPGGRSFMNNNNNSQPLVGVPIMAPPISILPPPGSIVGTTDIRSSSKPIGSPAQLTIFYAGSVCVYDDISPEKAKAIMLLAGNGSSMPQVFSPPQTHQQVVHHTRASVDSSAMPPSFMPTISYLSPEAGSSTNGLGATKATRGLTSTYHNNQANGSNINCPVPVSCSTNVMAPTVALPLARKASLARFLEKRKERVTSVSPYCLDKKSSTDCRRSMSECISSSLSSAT

MBP-JAZ4 (Arabidopsis) = target: T4, MBP-JAZ4 (Arabidopsis) (UniProt Q58G47)
T4 sequence: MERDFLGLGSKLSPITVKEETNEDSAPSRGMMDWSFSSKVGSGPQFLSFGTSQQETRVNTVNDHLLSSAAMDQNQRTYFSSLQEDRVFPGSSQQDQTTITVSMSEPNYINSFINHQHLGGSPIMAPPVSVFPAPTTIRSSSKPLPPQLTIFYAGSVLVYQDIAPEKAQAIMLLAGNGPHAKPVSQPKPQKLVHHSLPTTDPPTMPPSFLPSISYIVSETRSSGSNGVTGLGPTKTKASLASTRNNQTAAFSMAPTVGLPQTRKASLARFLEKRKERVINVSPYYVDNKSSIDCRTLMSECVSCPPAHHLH

MBP-JAZ7 (Arabidopsis) = target: T5, MBP-JAZ7 (Arabidopsis) (UniProt O64687)
T5 sequence: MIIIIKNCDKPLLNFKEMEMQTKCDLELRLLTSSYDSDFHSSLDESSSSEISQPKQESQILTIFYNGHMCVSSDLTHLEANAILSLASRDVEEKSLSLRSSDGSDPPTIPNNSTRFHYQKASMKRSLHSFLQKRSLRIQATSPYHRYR

MBP-JAZ8 (Arabidopsis) = target: T6, MBP-JAZ8 (Arabidopsis) (UniProt Q8LBM2)
T6 sequence: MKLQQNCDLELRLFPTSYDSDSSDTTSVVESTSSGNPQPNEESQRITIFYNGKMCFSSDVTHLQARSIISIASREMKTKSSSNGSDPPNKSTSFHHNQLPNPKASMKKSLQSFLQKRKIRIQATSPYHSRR

MBP-JAZ9 (Arabidopsis) = target: T7, MBP-JAZ9 (Arabidopsis) (UniProt Q8W4J8)
T7 sequence: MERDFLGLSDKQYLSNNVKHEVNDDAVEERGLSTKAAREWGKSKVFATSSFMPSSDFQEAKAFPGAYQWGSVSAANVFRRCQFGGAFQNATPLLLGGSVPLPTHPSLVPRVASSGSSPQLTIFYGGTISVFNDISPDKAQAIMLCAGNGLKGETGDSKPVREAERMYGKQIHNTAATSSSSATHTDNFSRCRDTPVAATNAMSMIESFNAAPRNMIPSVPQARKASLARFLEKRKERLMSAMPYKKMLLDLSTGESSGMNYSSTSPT

Measured: binding

HopX1-HA (effector HopX1 from Pseudomonas syringae pv. tabaci 11528)
binds: MBP-JAZ10 (Arabidopsis) | MBP-JAZ11 (Arabidopsis) | MBP-JAZ3 (Arabidopsis) | MBP-JAZ4 (Arabidopsis) | MBP-JAZ7 (Arabidopsis) | MBP-JAZ8 (Arabidopsis) | MBP-JAZ9 (Arabidopsis)
